Screening data, single-dose tests

Each number is a percent effect as filed. How 0% and 100% were set is not recorded. Most values in the screen are low, and negative values occur. Compounds were drawn at random from those tested, without regard to their results. Two or more numbers in one place are separate tests of the same structure; such repeats can differ widely.

A: 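Whole-cell growth test on Mycobacterium tuberculosis, read after 4 days in a medium based on cholesterol and the lipid DPPC; the read-out is not stated. Compounds at 50 µM. Direction is inferred from retests: higher values go with more growth inhibition. About 69,000 compounds were tested under these conditions; 0.54% (about 370) showed 50% or more at least once.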
B: 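Growth of Mycobacterium tuberculosis over 3 days (7H9 medium with glucose and tyloxapol); the read-out is not stated. Compounds at 50 µM. Higher reads as more growth inhibition (inferred: compounds with an IC50 in retests scored well above the rest). About 69,000 compounds were tested under these conditions; 1.1% (about 760) showed 50% or more at least once.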

- [H][C@]12CCC(=O)N(CC)[C@@]1(C)CCCCN2C(=O)CCn1nccc1C : A: -4.904%; B: -0.4854%
- O=C(NCc1c[nH]c(=O)[nH]c1=O)C1CCOc2ccccc2C1 (stereo not given) : A: -48.08%; B: -2.248%
- [H][C@]12CCN(C(=O)CC3CC3)C[C@@]1([H])OCCN(Cc1csc(C)n1)C2 : A: 2.034%; B: -1.463%
- CSC1=Nc2c(cnn2-c2cccc(Cl)c2)C2=NCCCN12 : A: 49.26%; B: 39.95%
- Cc1cccc(=O)n1CCC(=O)N1CCC2(CC1)OCCCC2O (stereo not given) : A: -8.89%; B: 18.58%
- COc1ccc(N2CCCN(CC(=O)N3CCNC(=O)C3)CC2)cc1 : A: -1.731%; B: 7.763%
- CCc1nccn1-c1cncc(C2CCCN2)n1.Cl (stereo not given) : A: 8.01%; B: -13.75%
- COc1cccc(N2CCC(CNC(=O)N(C)Cc3ccco3)C2)c1 (stereo not given) : A: 6.088%; B: 13.82%
- O=C(CN1CCCC(c2ccn[nH]2)C1)N1CCCc2ccccc21 (stereo not given) : A: -33.81%; B: -11.64%
- CNC(=O)CC1CC2(CCN(CC3CC3)CC2)Oc2ccccc21.O=C(O)C(F)(F)F (stereo not given) : A: -2.933%; B: 19.28%
- Cc1nc(CN2CCCC(CCc3ccccc3C(F)(F)F)C2)co1 (stereo not given) : A: 9.512%; B: 9.896%
- CN(C)Cc1cc(=O)n2c(n1)CN(CC1CCOCC1)CCC2 : A: -22.19%; B: -13.35%
- Cc1ccccc1CN(C)C(=O)CN1CCCC(Cn2cncn2)C1 (stereo not given) : A: -7.511%; B: -1.979%
- CCn1cncc1C1CC(=O)Nc2c1c(C)nn2C (stereo not given) : A: -5.128% & -2.182%; B: -29.76%
- NC(=O)NCC(=O)N1CCC2(CC1)c1ccccc1CC2O (stereo not given) : A: -15.67% & -2.246%; B: -22.1%
- Cc1ccc([C@@H]2CN(C(=O)c3cc[nH]c3)C[C@H]2NC(=O)C2CC2)cc1 : A: -7.452%; B: -4.818%
- CSCC(C)N(C)C(=O)c1nn(-c2ccc(F)cc2C)cc1O (stereo not given) : A: -4.584%; B: 26.53%
- COc1ccccc1OCCNC(=O)NCc1nc(C)no1 : A: -6.268%; B: -18.86%
- CSc1nccc(N2CCC3(CCCN(CCc4ccccc4)C3)C2)n1 (stereo not given) : A: 33.72%; B: 58.12%
- Cc1nc(C)n(CC2CN(CCC(=O)N3CCCCC3)CCO2)n1 (stereo not given) : A: -3.444%; B: 7.695%
- Cc1cc(NCCc2nc(C)c[nH]2)nc(-c2ccccc2O)n1 : A: 4.016%; B: -10.84%
- [H][C@@]12CCN(Cc3ccco3)C[C@@]1([H])[C@H](C(=O)NC1CC1)CCO2 : A: -2.251% & 9.932%; B: -25.38%
- CCC(=O)N1CCC(c2ncc3c(n2)CCNC3)CC1 : A: -13.66%; B: 7.97%
- CN1CCC(NC(=O)Cc2csc(C(C)(C)C)n2)CC1 : A: 18.2%; B: 32.05%
- [H][C@]12CC[C@]([H])(CN(C(=O)CCc3n[nH]c(C)c3C)C1)N(CCOC)C2 : A: -4.014%; B: -35.14% & 0.7107%
- COCCC(=O)N1CCC2(CC1)CN(C(C)=O)Cc1ccccc1O2 : A: 0.5967% & -0.6548%; B: -7.01%
- COc1cccc(CC(C)NC(=O)NCCc2cccnc2)c1 (stereo not given) : A: -7.83%; B: 8%
- Cc1nc(CN2CCCn3c(nc(Cn4ccnc4)cc3=O)C2)cs1 : A: -10.98%; B: -16.21%
- O=C(NCC1CCS(=O)(=O)C1)N(Cc1ccco1)C1CC1 (stereo not given) : A: -0.3166%; B: 22.16%

3 of the entries, repeated:

compound	A	B
NC(=O)NCC(=O)N1CCC2(CC1)c1ccccc1CC2O (stereo not given)	-15.67% & -2.246%	-22.1%
CCn1cncc1C1CC(=O)Nc2c1c(C)nn2C (stereo not given)	-5.128% & -2.182%	-29.76%
CNC(=O)CC1CC2(CCN(CC3CC3)CC2)Oc2ccccc21.O=C(O)C(F)(F)F (stereo not given)	-2.933%	19.28%

From ChEMBL document CHEMBL3988442, “University of Dundee, Small-Polar-MMV Screening Library” (2021).